Laboratory results: PubChem BioAssay AID686938 (Drosophila RNAi Screening Center, 2013)
Purpose: 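Fly genes required for calcium entry once internal stores are emptied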 (primary screen). Cell system: Drosophila S2R+ cells. Reagents: long dsRNA against Drosophila genes, about 0.25 µg dsRNA per well, roughly 10,000 cells. Duration: 5 days of knock-down before the calcium assay. Conditions: thapsigargin (SERCA pump blocker) to empty calcium stores; entry signal taken 4 min after adding it. Read-out: 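Per-well fluo-4 fluorescence in two replicates, unnormalised, measured in resting cells and 4 min after store depletion by the SERCA blocker thapsigargin; ratio of the two present in few wells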. Reading the numbers: calcium entry signal: higher = stronger calcium signal after store depletion; resting calcium signal: higher = higher resting calcium signal. Hit rule: 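Called when the plate z-score of the entry-to-rest ratio, mean of duplicates, falls below −3; wells with low overall dye signal (Fmax z below −2) or more than five off-targets excluded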. Meaning of the calls: active = strongly reduced calcium entry; inactive = no strong reduction.
The deposit covers about 23,000 reagents; shown is a random part of those that have a named target and a result. Of all reagents, 75 (0.33%) are marked active. 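Raw plate signals without normalisation; calls rest on plate z-scores that were not deposited; ratio present for only 364 wells.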 The record does not give: the dose of the treatment.

predicted target | DRSC id | calcium entry signal, replicate 1 (fluorescence units) | calcium entry signal, replicate 2 (fluorescence units) | resting calcium signal, replicate 1 (fluorescence units) | resting calcium signal, replicate 2 (fluorescence units) | Call
S-Lap3 | DRSC10956 | 3.90e7 | 2.25e7 | 2.69e7 | 1.08e7 | inactive
SIFa | DRSC04480 | 4.41e7 | 4.86e7 | 2.09e7 | 2.28e7 | inactive
Prosbeta7 | DRSC12186 | 1.61e7 | 1.38e7 | 1.12e7 | 9.41e6 | inactive
CG42514 | DRSC10428 | 2.52e7 | 3.72e7 | 1.22e7 | 2.32e7 | inactive
scra | DRSC07679 | 1.57e7 | 2.06e7 | 9.75e6 | 1.04e7 | inactive
RpL10Ab | DRSC10798 | 1.28e7 | 1.07e7 | 9.61e6 | 8.34e6 | inactive
CenG1A | DRSC02538 | 4.39e7 | 2.89e7 | 1.84e7 | 1.41e7 | inactive
CenG1A | DRSC03505 | 4.36e7 | 3.10e7 | 1.92e7 | 1.39e7 | inactive
CenG1A | DRSC03506 | 4.45e7 | 2.90e7 | 1.99e7 | 1.48e7 | inactive
Chd3 | DRSC11114 | 3.34e7 | 5.57e7 | 1.49e7 | 2.23e7 | inactive
Polr3B | DRSC07536 | 2.78e7 | 2.53e7 | 1.21e7 | 1.21e7 | inactive
CG8399 | DRSC07163 | 3.31e7 | 3.35e7 | 1.56e7 | 1.68e7 | inactive
CG31391 | DRSC16047 | 3.56e7 | 3.52e7 | 1.64e7 | 1.97e7 | inactive
Cyp6a21 | DRSC07381 | 3.72e7 | 4.39e7 | 1.86e7 | 2.09e7 | inactive
Best3 | DRSC09880 | 3.83e7 | 4.11e7 | 1.85e7 | 1.54e7 | inactive

Looked up above:
For “resting calcium signal, replicate 2 (fluorescence units)”, Best3 [DRSC09880] reads 1.54e7
For “calcium entry signal, replicate 2 (fluorescence units)”, Polr3B [DRSC07536] shows 2.53e7
Under “resting calcium signal, replicate 1 (fluorescence units)”, Prosbeta7 [DRSC12186] is entered as 1.12e7
scra [DRSC07679], Call → inactive
Entry of CG31391 [DRSC16047] under “resting calcium signal, replicate 1 (fluorescence units)”: 1.64e7
Entry for Chd3 [DRSC11114] in “resting calcium signal, replicate 2 (fluorescence units)”: 2.23e7

The results go on:
predicted target | DRSC id | calcium entry signal, replicate 1 (fluorescence units) | calcium entry signal, replicate 2 (fluorescence units) | resting calcium signal, replicate 1 (fluorescence units) | resting calcium signal, replicate 2 (fluorescence units) | Call
Cfp1 | DRSC18128 | 3.33e7 | 3.81e7 | 1.70e7 | 1.96e7 | inactive
Spt20 | DRSC10280 | 2.23e7 | 3.05e7 | 1.46e7 | 1.83e7 | inactive
Spt20 | DRSC22993 | 7.24e7 | 2.64e7 | 3.01e7 | 1.20e7 | inactive
Opa1 | DRSC07191 | 3.15e7 | 4.59e7 | 1.37e7 | 2.10e7 | inactive
CG10182 | DRSC14202 | 4.11e7 | 5.61e7 | 1.76e7 | 2.18e7 | inactive
Pex19 | DRSC02839 | 4.48e7 | – | 2.13e7 | – | inactive
lectin-37Da | DRSC03278 | 4.07e7 | 4.36e7 | 2.05e7 | 2.25e7 | inactive
lectin-37Da | DRSC22729 | 4.04e7 | 3.72e7 | 2.16e7 | 1.52e7 | inactive
salr | DRSC03607 | 4.75e7 | 4.75e7 | 2.18e7 | 2.05e7 | inactive
Mkrn1 | DRSC11870 | 2.68e7 | 1.54e7 | 1.31e7 | 8.42e6 | inactive
qkr58E-1 | DRSC04709 | 3.28e7 | – | 1.64e7 | – | inactive
CG34012 | DRSC09089 | 3.50e7 | 3.19e7 | 1.80e7 | 1.54e7 | inactive
CG15708 | DRSC06579 | 4.71e7 | 5.46e7 | 2.09e7 | 2.53e7 | inactive
Snx16 | DRSC06984 | 4.22e7 | 4.21e7 | 2.08e7 | 2.11e7 | inactive
CG9632 | DRSC16528 | 3.01e7 | 4.86e7 | 1.56e7 | 5.42e7 | inactive
ND-B14.5AL | DRSC11795 | 3.03e7 | 5.57e7 | 1.49e7 | 2.21e7 | inactive
ssp6 | DRSC08791 | 4.69e7 | 4.34e7 | 2.49e7 | 1.97e7 | inactive
ssp6 | DRSC10677 | 2.49e7 | 4.78e7 | 1.37e7 | 2.07e7 | inactive
CG33757 | DRSC05159 | 2.69e7 | 3.66e7 | 1.40e7 | 1.73e7 | inactive
key | DRSC04285 | 4.66e7 | – | 2.28e7 | – | inactive
Ykt6 | DRSC17970 | 3.30e7 | 3.45e7 | 2.00e7 | 1.99e7 | inactive
Cyp305a1 | DRSC11126 | 3.13e7 | 3.90e7 | 1.44e7 | 2.39e7 | inactive
CG5921 | DRSC17431 | 2.84e7 | 3.62e7 | 1.39e7 | 1.80e7 | inactive
CG5921 | DRSC18390 | 4.13e7 | 5.20e7 | 1.95e7 | 2.40e7 | inactive
CG1239 | DRSC12204 | 3.02e7 | 3.61e7 | 1.37e7 | 1.54e7 | inactive
